# Library screening results

The values are deposited in ChEMBL (CHEMBL3988442, “University of Dundee, Small-Polar-MMV Screening Library” (2021)).

A: 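Whole-cell assay for inhibitors of Mycobacterium tuberculosis growth, labelled Cornell in the record; the read-out is not stated. The concentration is filed as 10 mM, unlikely as a test dose, so the dose is not known. The record gives no direction; compounds strong in two other growth screens of this library score well above the rest, so higher reads as stronger inhibition. Of about 53,000 compounds tested this way, about 900 (1.7%) reached 50% or more in at least one test.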
B: 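Assay on Mycobacterium tuberculosis, filed only as a heat shock assay from Cornell; the read-out is not stated. The concentration is filed as 10 mM, unlikely as a test dose, so the dose is not known. Higher reads as stronger inhibition (inferred: compounds with an IC50 in retests scored well above the rest). Of about 69,000 compounds tested this way, about 930 (1.4%) reached 50% or more in at least one test.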

The filed quantity is “Percent Effect” (%).
The record does not define 0% and 100%; most values in the screen are far below 50% and negative numbers occur (in some assays of this library far below -100).
This is an unselected part of the compounds tested.
A dash means the value is not listed here; it may have been measured.

SMILES | A | B
Cn1cc(Br)cc1C(=O)NC1(C#N)CC1 | -3.587% | -14.53%
O=C(N1CCOCC(O)C1)C1(c2ccc(Cl)cc2)CCC1 (centres undefined) | 0.1423% | -19.77%
CCN(Cc1cc(F)c(OC)c(Cl)c1)Cc1nc(COC)no1 | -13.35% | -27.51%
NC(=O)CC1CCN(CC(O)c2ccc(Br)cc2)CC1 (centres undefined) | -33.85% | 26.01%
CS(=O)(=O)N1CCCC1CS(=O)(=O)c1ccccc1 (centres undefined) | -82.48% | -1.542%
CN(Cc1cn2c(n1)CN(C(=O)c1ccc[nH]1)CC2)Cc1ccco1.O=C(O)C(F)(F)F | 17.95% | -20.88%
CC(=O)Nc1ccc(C(=O)N(C)C(C)Cc2cc(C)ccn2)cn1 (centres undefined) | - | 13.26%
Cc1noc(C)c1-c1nc(N(C)CCN(C)C)ncc1-c1cnccn1 | 17.55% | -6.865%
CCOCC(=O)N1CCC2(CC1)CN(Cc1cccnc1)C(=O)CO2 | 2.307% | -9.4%
CN(C)Cc1cncc2c1CCN(C1CCOCC1)C2.Cl.Cl.Cl | -19.16% | 47.84%
CC(NCCN1CCN(C(=O)C2CCCC2)CC1)c1cnn(C)c1 (centres undefined) | -57.57% | -18.29%
O=C(O)C(F)(F)F.O=C(O)C(F)(F)F.O=C(O)C(F)(F)F.O=C(O)C(F)(F)F.[H][C@]12CC(Cn3cccn3)N(C)[C@@]1([H])CCN(Cc1ccccn1)C2 (some centres undefined) | - | -26.63%
COc1ccc(C(N)=O)cc1NCc1nc(-c2cccs2)oc1C | -3.751% | 6.484%
O=C1CC(c2ccccc2)c2sc(C(=O)O)c(-c3ccccc3)c2N1 (centres undefined) | 17.04% | -2.478%
O=C(c1n[nH]c2c1CCC2)N1CCCC1c1nc(-c2ccccc2)no1 (centres undefined) | - | -31.61%
O=C(NCc1cccnc1OCC(F)(F)F)N1CCOCC1 | 11.68% | -3.165%
CC1(C)CN(C(=O)c2ccc3nncn3c2)CCS1 | - | -1.192%
CCc1n[nH]c(C2CN(Cc3csc(C4CCCC4)n3)CCO2)n1 (centres undefined) | - | 12.54%
CCc1nc(C2CCCN2C(=O)c2csc(COC)n2)no1 (centres undefined) | -20.84% | -8.928%
[H][C@]12CC[C@](O)(CC1)C(CN1CCOCC1)N2C(=O)N1CCOCC1 (some centres undefined) | 6.831% | 2.205%
COc1ccc(NC(=O)NCc2ccnc(N(C)C)c2)cn1 | - | -4.801%
CC(C)c1nc2c(n1C)CCN(CCS(=O)(=O)c1ccccc1)C2 | 19.74% | 14.35%
Cc1cccc(C(=O)N2CCC(C(=O)c3cc(F)ccc3F)CC2)n1 | - | -5.332%
O=C(NCc1ccnc(OCC(F)(F)F)c1)NCC1CCOC1 (centres undefined) | 28.38% | -1.651%
Cc1nc(C2CCCN2C(=O)CCc2ccccc2)ncc1C(N)=O (centres undefined) | -14.55% | -10.18%
Cc1ccc2c(n1)N(CCN(C)C)CCN(Cc1c(C)noc1C)C2.O=C(O)C(F)(F)F.O=C(O)C(F)(F)F.O=C(O)C(F)(F)F | 21.64% | -15.43%
CN(C)C1CCN(C(=O)c2cccc(S(=O)(=O)NCC3(C)COC3)c2)C1 (centres undefined) | 13.34% | 7.339%
Cc1ccc2[nH]c(CN(C)Cc3ccccc3C(=O)O)nc2c1 | - | -3.354%
CC(C)c1ncc2c(n1)CN(CC(=O)Nc1ccc(Cl)cn1)CC2 | 21.44% | 3.685%
CN(CCc1ccccn1)[C@@H]1CCN(c2cc(C(N)=O)ccn2)C[C@H]1O | -11.52% | 0.2618%
Cc1nnc(NCC(c2ccco2)N2CCCC2)c(C#N)c1C (centres undefined) | -15.21% | 16.1%
Cc1cc(C(=O)NCCCn2nccc2C2CC2)c(=O)[nH]c1C | -6.47% | -0.5898%
N#CC1CCCN(c2nc(-c3ccccc3)nc3c2CCNCC3)C1 (centres undefined) | -6.773% | -9.181%
CC(=O)NCCNC(=O)C1(N2CCCCC2)Cc2ccccc2C1 | 10.57% | -6.479%
N#Cc1nc(COc2ccc3c(c2)OCO3)oc1N1CCCC1 | 60.43% | -8.813%
Cc1nc(C(NC(=O)c2cc(C(C)C)[nH]n2)c2ccccc2)n[nH]1 (centres undefined) | - | 5.739%
Cc1ncccc1OC1(C(=O)NCCCN2CCOCC2)CCNCC1 | - | -12.38%
CCOCCCNC(=O)c1ccccc1S(C)(=O)=O | -28% | 13.36%
CCn1ccnc1CN1CCN(c2ccc3nnc(C)n3n2)CC1 | 9.516% | -21.64%
COc1ccc(CC(=O)N2CCCC2Cn2cc(C)cn2)cc1OC (centres undefined) | - | 1.752%
Fc1ccc(C2CN(c3ncnc4nc[nH]c34)CCO2)cc1 (centres undefined) | -4.364% | -16.94%
CC(C)NC(=O)C1CCc2nnc(C(C)(C)C)n21 (centres undefined) | - | 3.739%
Cc1nc(N)sc1C(=O)N1CCCC(COc2ccc(F)cc2)C1 (centres undefined) | -0.5234% | -21.48%
CC(C)CN1CC2(CCN(C(=O)C3CNC(=O)N3)CC2)CC1=O (centres undefined) | 16.44% | -7.1%
O=C(NCC1CC1)c1nc2c(o1)CN(CC1CC1)C2.O=C(O)C(F)(F)F | 19.27% | 13.12%
[H][C@]12CC[C@]([H])(CN(C(=O)c3ccc(N(CC)CC)cc3)C1)N(CCOC)C2 | 8.851% | -19.45%
c1ccc(Cc2noc(CN3CCCC3Cn3cccn3)n2)cc1 (centres undefined) | -22.64% | -6.503%
[H][C@]12CC[C@]([H])(CN(c3nccc(OC)n3)C1)N(CC1CCC1)C2=O | 8.636% | -15.88%
CC(C)(O)CCc1cccc(C(=O)N[C@H](C(N)=O)c2ccccc2)c1 | -26.77% | 9.614%
CCC(C)NC(=O)Nc1cccc(OCC#N)c1 (centres undefined) | 18.12% | -3.075%
CCn1cc(S(=O)(=O)N2CCN(S(=O)(=O)c3ccc(Br)s3)CC2)cn1 | 9.587% | 11.29%
CCC1CN(C(=O)Cc2coc(-c3ccccc3)n2)CCO1 (centres undefined) | - | -6.833%
CSc1ncc(C(=O)NCc2cc3n(n2)CCCN(CC(C)C)C3)cn1 | -7.859% | -22.46%
O=C(c1ccc2nncn2c1)N1CCSC2(CCCCC2)C1 | - | -46.92%
N#Cc1cccc(C(=O)N2CCc3c(COCC4CC4)cncc3C2)c1.O=C(O)C(F)(F)F | -4.232% | -19.77%
CCC(C)CN1CCC(n2cc(C3CCCCC3)nn2)CC1 (centres undefined) | -16.49% | -28.15%
COCCn1cc(NC(=O)NCC(C)N2CCOCC2)cn1 (centres undefined) | -21.82% | -2.529%
O=C(CCc1ccsc1)NCC1CCN(Cc2cccs2)CC1 | 17.54% | -37.81%
COc1cc(NC(=O)NCc2nccn2C)ccc1Br | 14.44% | -1.069%
CN1CCC(NC(=O)CCCc2cc(Cl)sc2Cl)C1=O (centres undefined) | 20.18% | -9.024%
CCCN1CCC(CC(=O)N2CCC(C(O)c3nccn3C)CC2)CC1 (centres undefined) | - | 16.99%
CS(=O)(=O)NCC1CCCCN1C(=O)c1ccsc1 (centres undefined) | -21.9% | 7.923%
CN1CCN(c2ccc(C(=O)N3CCCC(c4ncc[nH]4)C3)cc2)CC1 (centres undefined) | -12.93% | -1.365%
CN(C)C(=O)N1CC[C@@H](O)[C@@H]1Cc1cnn(C)c1 | 28.35% | 8.593%
c1cncc(-c2c[nH]c([C@@H]3COCCN3Cc3ccncc3)n2)c1 | -3.751% | -6.538%
[H][C@@]12CC[C@H](Oc3cccc(F)c3)[C@]1([H])CN(C(=O)Cn1ccnc1)C2 | 2.872% | -9.833%
CC(C)c1ccc(S(=O)(=O)N2CCCC3(CCCN3S(C)(=O)=O)C2)cc1 (centres undefined) | - | -29.47%
[H][C@@]12CCN(C(=O)c3occc3C)C[C@@]1([H])O[C@@H](c1nnc(C3CC3)o1)C2 | -7.361% | 25.47%
CN1C[C@@H](O)[C@]2(CCN(C(=O)c3ccccc3)C2)S1(=O)=O | 6.367% | 10.17%
CCOc1ccc(Cl)c(C(=O)N2CCN(CC(O)CC)CC2)n1 (centres undefined) | -26.75% | -3.799%
O=C(NCCc1cccnc1)C1CCCN(Cc2ccco2)C1 (centres undefined) | -28.06% | -20.98%
CCc1cc(C(F)(F)F)n2nc(C3CCCN3C(=O)COC)cc2n1 (centres undefined) | 10.84% | 6.754%
CN(c1ccc(F)c(F)c1)S(=O)(=O)c1cc(C(=O)O)cs1 | 14.04% | 11.69%
O=C(O)C(F)(F)F.O=C(O)C(F)(F)F.[H][C@]12CCN(c3ncc(C)cn3)[C@@]1([H])CC[C@@H](COCc1ccccn1)O2 | 34% | -0.4918%
Cc1ccoc1C(=O)N1CCCC2(CCCN2S(C)(=O)=O)C1 (centres undefined) | 18.13% | -32.96%
Cc1ccccc1Oc1ncccc1CNC1CCC1 | - | 8.671%
NC(=O)c1cnn2c1NCC(CNCCCOc1ccccc1F)C2 (centres undefined) | - | 2.829%
Cc1ccc(C)c(NC(=O)c2cc(S(=O)(=O)N3CCSCC3)c[nH]2)c1 | -5.086% | -28%
CC(C)COCCC(=O)Nc1cc(-n2nnnc2C2CC2)ccc1F | 20.3% | -17.25%
Cc1ccc(OCCC(=O)NCCCN2CCCC2=O)c(C)c1 | 20.98% | 0.1698%
COC(=O)Cn1ccc(=O)c2ccc(OC)cc21 | - | -6.395%